These are yes or no findings as the source states them, for the method shown. Binding seen in cells or lysates may run through a third protein. Some binding calls cover weakened binding; strength is not graded here.
Molecular target: T1, cytosolic domain of human TOM70 (amino acids 111-608), wild type (human) (UniProt O94826)
T1 sequence: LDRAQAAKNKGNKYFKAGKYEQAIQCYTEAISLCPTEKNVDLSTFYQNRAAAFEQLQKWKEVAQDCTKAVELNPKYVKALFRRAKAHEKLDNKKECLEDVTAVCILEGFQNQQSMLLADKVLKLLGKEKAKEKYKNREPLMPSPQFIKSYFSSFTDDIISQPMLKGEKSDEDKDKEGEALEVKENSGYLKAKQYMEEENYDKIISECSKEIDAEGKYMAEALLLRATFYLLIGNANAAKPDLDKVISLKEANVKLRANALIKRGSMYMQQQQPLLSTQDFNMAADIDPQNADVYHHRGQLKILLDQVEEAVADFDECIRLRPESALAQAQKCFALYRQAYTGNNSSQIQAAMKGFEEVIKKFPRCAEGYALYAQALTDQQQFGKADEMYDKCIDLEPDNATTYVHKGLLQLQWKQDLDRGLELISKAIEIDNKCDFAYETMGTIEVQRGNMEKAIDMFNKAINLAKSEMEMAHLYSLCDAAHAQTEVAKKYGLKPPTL
Assay: pull-down; […]; 7% ([…]; 40 min, 30 °C; […], pH 7.2; […]; only the target purified

Sequences of proteins named here, by UniProt entry; tags and fusion partners are left off.
UniProt P08238: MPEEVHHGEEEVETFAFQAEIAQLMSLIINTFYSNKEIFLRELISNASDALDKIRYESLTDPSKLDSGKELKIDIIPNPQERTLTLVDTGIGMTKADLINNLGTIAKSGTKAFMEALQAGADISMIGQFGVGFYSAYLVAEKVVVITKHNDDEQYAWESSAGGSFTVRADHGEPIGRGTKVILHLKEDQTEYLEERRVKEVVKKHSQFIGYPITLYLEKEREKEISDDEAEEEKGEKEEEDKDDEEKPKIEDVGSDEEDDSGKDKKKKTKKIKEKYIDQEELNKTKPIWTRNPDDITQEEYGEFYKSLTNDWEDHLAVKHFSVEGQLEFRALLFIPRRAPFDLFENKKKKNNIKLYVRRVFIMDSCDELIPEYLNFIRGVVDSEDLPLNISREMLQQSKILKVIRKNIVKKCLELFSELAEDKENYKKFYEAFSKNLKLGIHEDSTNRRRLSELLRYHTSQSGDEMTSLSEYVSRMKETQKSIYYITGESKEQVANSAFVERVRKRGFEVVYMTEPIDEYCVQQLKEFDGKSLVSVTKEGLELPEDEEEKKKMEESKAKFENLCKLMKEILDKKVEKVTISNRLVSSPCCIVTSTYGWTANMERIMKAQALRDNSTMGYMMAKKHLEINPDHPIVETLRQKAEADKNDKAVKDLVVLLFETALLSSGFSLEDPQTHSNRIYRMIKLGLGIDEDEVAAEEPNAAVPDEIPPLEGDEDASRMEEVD

binding: binds
Substance: human Hsp90 (Hsp90-beta), full length, radiolabeled, synthesized in reticulocyte lysate (from UniProt P08238 1-724)

From PMC8430508
